At least one compound was matched to its structure with a doubt left.
System: Mortierella elongata AG77
Test: Carbon source utilisation in Biolog 96-well plates, formazan formation after tetrazolium addition
Assay type: cell-based
Conditions: compound as carbon source; Metabolized = more formazan formation than a control containing no carbon source; observed visually at 2 h, 24 h, 148 h
Experimental: Two 300 mL volumes of growth medium comprising 1 g/L KH2PO4, 1 g/L MgSO4 7H2O, 0.1 g/L CaCl2, 0.02 g/L FeNaEDTA, 0.1 g/L NaCl, and either 1 g/L NH4NO3 or 20 g/L sucrose were prepared. Acidity was adjusted to 5.5 using NaOH and volumes of growth medium were autoclaved 30 min at 121° C. to sterilize. Aliquots of 200 μL of carbon-free medium or nitrogen-free medium were pipetted into each well of a set of 96-well plates previously prepared with lyophilized putative carbon or nitrogen sources (Biolog Inc., Hayward, Calif.). Inocula were prepared by perforating a culture of Mortierella elongata AG77 grown on 20 g/L potato dextrose agar with a 3 mm diameter cork borer and separating the surface mycelial mat from the solid growth medium using tweezers. Each well was inoculated with one inoculum. Cultures were incubated at 21° C. for 24 hours to allow metabolic changes to stabilize, and then 100 μL of 3 g/L tetrazolium chloride in water was added to each well. Formazan formation was observed visually at 2 h, 24 h, and 148 h.
Conclusions were based on rate and intensity of formazan formation using the 3-4,5-dimethylthiazol-2-yl)-2,5-diphenyltetrazolium bromide (MTT) assay. “Metabolized” indicates more formazan formation than a control containing no carbon source, and “Toxic” indicates less formazan formation than a control containing no carbon source. […]

COC(=O)CCC(=O)O [Mono Methyl Succinate]
Metabolized: no

— patent publication US20200325505A1, “FILAMENTOUS FUNGI CAPABLE OF PRODUCING VERY LONG CHAIN FATTY ACIDS” (UT-Battelle, LLC, priority 2019, published 2020)
